Results reported in patent publication US11458200B2, “Constructs, agents, and methods for facilitated ablation of cardiac tissue” (priority 2016, dated 2022).

Test system: epicardium
Test: Open-chest rodent survival model of epicardial RF ablation after IV quercetin
Format: in vivo
Conditions: 24 hours after RFA group, 3 W, IV 10 mg/kg
Protocol: Using an open-chest rodent survival model and a custom-made catheter, RF was applied to the epicardium at 3 W for 20 seconds after infusion of a HSP inhibitor, intravenous quercetin (n=20, 10 mg/kg), or control (n=20). Animals were sacrificed at 1 (n=10 each) and 24 hours (n=10 each) after ablation. RFA lesions were stained and analyzed under microscopy.

## O=c1c(O)c(-c2ccc(O)c(O)c2)oc2cc(O)cc(O)c12 [Quercetin, 3,3′,4′,5,7-pentahydroxyflavone]
  Impedance Drop: 401 ± 105
  Initial Impedance: 597 ± 123
  Peak temp: 75 ± 8
Listed as quercetin
  Impedance Drop: not different
  Initial Impedance: not different
  Peak temp: not different
